± gives the standard deviation of the averaged measurements. The entries are a selection whose mix differs from that of the whole data set. Most values lie at the level of the controls, where differences are scatter.

Protein sequences, listed by entry. Tags and fused reporters are not part of them. Lines headed by an entry give the natural chain unless they say otherwise; changes in a name come on top.
UniProt O43488: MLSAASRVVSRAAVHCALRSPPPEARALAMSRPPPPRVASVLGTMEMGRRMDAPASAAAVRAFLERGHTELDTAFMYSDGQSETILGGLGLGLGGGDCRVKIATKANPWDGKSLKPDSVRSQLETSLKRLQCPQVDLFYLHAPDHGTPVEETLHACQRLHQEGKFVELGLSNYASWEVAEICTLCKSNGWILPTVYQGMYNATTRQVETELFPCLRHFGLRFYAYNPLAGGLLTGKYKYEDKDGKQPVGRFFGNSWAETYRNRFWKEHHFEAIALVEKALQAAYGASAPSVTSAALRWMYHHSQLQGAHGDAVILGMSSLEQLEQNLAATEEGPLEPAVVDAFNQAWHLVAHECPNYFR
UniProt O14818: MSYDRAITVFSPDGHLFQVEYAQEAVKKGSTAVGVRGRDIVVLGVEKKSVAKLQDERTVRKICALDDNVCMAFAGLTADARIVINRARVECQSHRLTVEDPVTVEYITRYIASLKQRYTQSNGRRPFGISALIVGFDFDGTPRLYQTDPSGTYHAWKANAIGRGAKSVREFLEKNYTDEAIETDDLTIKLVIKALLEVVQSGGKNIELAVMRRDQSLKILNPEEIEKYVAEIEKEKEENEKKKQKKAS
UniProt O14757: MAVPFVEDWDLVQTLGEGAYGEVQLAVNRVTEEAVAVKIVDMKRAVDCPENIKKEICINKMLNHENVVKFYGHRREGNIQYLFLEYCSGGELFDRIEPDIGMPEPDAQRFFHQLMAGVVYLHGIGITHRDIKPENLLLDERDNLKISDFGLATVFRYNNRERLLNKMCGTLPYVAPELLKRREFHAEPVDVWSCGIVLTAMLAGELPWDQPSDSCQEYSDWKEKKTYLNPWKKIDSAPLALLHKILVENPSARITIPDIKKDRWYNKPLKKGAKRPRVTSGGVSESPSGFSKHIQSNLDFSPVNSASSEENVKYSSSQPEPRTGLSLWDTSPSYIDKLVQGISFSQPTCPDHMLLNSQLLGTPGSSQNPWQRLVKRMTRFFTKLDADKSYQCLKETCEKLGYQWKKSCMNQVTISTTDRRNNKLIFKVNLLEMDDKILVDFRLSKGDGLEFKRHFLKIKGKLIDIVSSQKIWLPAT
UniProt O60220: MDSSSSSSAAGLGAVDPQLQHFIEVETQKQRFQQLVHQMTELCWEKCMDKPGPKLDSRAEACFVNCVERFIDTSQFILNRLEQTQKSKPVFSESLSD
UniProt O43242, whole entry: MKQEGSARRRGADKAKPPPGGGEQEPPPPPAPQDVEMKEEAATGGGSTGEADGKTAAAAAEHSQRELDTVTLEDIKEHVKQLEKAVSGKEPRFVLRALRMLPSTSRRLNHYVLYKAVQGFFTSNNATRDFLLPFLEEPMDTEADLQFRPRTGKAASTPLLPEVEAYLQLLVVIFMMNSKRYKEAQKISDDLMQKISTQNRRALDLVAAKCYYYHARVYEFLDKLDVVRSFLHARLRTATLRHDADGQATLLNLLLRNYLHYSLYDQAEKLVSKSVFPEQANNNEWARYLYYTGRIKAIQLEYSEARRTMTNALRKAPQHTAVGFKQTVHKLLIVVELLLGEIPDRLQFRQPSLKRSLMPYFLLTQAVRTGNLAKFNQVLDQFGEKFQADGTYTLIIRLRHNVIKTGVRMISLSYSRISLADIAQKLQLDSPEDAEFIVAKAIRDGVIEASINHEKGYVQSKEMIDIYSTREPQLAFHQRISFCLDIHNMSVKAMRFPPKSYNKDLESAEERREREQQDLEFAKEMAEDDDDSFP
UniProt O43324: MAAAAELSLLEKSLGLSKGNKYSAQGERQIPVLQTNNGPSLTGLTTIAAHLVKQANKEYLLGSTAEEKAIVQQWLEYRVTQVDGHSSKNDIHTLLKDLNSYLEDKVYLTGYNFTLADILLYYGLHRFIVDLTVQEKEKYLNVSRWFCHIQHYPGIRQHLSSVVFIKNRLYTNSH
UniProt O60331: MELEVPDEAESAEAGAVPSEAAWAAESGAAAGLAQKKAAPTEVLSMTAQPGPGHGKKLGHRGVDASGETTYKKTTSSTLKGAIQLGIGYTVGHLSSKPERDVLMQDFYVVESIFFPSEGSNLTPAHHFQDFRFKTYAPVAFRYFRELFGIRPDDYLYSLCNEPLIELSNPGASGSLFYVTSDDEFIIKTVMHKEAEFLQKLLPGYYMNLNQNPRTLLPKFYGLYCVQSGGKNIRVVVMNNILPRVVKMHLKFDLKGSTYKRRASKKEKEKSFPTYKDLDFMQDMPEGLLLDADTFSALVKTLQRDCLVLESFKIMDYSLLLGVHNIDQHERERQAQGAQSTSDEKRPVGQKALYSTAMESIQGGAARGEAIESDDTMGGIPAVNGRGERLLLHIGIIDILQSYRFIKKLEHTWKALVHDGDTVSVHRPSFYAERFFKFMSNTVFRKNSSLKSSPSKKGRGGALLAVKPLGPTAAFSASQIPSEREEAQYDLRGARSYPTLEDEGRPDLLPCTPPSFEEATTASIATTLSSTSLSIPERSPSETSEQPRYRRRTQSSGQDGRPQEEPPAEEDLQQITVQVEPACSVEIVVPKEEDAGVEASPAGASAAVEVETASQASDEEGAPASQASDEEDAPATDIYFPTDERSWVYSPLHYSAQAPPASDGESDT
UniProt O15226: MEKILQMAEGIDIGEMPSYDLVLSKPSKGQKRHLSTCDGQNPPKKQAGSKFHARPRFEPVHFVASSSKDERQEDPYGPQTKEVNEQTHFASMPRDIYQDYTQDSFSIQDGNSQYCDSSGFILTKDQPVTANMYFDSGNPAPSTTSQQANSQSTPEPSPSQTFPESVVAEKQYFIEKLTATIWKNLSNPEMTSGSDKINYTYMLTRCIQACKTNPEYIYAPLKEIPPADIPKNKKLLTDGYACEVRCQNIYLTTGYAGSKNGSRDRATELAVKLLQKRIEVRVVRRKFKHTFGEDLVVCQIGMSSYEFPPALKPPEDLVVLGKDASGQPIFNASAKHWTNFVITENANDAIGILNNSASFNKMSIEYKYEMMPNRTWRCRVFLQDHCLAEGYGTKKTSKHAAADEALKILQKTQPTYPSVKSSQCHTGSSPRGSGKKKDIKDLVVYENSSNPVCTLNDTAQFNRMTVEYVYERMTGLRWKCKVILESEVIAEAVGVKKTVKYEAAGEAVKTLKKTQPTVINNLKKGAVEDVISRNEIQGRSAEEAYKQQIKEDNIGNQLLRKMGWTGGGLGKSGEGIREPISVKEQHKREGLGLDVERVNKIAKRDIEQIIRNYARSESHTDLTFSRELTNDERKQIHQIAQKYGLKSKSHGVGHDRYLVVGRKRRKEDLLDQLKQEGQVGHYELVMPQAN
UniProt O43852: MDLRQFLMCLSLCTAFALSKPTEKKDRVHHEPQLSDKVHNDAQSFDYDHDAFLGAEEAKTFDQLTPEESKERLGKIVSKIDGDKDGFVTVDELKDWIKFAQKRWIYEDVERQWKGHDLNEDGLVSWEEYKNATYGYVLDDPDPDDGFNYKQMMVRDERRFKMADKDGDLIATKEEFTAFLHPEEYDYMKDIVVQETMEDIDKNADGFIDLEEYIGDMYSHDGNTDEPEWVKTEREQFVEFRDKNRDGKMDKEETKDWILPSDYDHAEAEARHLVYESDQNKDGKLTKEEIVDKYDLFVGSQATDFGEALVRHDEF
UniProt O60234, whole entry: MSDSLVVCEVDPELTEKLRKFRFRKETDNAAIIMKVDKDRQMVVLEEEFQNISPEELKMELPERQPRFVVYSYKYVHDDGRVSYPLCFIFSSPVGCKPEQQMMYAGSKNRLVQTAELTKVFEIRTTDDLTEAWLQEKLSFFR
UniProt O43390: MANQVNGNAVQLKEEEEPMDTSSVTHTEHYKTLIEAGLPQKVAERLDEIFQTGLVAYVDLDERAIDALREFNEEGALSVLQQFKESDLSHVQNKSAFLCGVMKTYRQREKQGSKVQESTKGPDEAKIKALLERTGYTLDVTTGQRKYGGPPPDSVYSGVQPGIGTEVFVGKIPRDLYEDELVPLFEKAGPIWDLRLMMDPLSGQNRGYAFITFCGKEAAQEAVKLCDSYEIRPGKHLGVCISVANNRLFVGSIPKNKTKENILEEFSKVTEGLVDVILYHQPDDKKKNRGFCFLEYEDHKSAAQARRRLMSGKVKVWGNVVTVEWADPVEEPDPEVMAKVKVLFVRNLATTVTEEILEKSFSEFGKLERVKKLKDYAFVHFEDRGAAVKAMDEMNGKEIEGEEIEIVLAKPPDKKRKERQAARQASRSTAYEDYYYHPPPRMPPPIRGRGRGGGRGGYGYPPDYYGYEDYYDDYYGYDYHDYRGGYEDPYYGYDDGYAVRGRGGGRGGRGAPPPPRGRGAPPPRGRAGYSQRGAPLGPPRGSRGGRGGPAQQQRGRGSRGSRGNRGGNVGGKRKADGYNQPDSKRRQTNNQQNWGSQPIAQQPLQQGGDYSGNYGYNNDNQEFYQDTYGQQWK
UniProt O00165, whole entry: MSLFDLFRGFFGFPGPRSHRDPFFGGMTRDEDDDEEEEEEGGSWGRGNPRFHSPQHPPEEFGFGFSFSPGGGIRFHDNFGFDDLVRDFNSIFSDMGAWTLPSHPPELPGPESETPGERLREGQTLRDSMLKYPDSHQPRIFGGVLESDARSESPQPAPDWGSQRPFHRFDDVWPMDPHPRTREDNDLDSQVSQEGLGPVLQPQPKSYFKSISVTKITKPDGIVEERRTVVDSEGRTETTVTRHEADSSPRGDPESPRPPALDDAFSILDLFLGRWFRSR
UniProt O14879: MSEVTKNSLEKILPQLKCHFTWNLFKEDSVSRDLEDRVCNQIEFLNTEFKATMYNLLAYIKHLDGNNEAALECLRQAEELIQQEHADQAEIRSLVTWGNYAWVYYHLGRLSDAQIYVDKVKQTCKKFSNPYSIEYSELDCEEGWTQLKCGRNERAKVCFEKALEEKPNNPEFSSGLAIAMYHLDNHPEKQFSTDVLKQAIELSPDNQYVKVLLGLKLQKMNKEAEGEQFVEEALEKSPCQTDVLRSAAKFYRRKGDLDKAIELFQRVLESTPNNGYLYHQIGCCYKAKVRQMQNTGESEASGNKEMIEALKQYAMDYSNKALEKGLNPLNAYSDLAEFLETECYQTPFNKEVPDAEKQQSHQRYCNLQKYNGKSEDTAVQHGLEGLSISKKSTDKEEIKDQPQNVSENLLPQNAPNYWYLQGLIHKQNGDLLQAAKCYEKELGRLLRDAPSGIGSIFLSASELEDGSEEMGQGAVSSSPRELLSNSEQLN
UniProt O14933: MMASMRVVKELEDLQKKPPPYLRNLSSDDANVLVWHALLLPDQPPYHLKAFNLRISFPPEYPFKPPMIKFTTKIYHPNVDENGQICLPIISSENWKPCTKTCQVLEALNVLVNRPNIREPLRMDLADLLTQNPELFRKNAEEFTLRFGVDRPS
UniProt O60343: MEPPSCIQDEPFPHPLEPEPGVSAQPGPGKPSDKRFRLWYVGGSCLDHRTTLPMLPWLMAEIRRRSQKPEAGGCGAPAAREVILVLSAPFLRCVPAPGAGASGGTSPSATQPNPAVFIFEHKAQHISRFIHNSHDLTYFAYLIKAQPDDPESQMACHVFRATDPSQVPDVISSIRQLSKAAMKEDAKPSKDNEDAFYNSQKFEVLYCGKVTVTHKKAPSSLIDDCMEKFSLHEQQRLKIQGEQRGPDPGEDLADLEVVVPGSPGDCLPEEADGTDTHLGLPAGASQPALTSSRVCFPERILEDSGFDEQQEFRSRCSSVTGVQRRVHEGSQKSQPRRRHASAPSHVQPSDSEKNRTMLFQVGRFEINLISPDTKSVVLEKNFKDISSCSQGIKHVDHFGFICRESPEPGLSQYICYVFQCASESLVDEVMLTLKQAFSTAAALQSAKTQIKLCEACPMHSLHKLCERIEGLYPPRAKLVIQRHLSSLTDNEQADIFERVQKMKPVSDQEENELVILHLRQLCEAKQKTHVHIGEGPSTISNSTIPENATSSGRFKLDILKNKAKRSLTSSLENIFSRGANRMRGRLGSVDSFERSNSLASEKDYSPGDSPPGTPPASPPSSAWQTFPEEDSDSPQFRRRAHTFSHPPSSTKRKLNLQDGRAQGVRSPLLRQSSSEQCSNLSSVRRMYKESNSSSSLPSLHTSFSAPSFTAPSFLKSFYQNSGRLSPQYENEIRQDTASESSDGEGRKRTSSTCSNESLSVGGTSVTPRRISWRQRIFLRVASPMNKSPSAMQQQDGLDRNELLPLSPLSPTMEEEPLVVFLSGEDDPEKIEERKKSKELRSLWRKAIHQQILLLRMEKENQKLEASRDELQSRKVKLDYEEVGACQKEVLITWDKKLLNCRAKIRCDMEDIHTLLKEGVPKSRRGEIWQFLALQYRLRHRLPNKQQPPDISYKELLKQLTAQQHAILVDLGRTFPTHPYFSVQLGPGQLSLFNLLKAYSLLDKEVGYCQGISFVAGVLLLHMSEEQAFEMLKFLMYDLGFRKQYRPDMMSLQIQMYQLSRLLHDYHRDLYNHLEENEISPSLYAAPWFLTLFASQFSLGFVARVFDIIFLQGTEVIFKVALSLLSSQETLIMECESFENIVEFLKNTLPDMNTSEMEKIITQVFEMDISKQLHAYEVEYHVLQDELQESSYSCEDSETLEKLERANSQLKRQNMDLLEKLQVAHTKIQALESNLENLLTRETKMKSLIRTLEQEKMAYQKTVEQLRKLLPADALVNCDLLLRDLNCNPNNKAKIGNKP

Compound in the assay: Nc1ncnc2c1ncn2[C@@H]1O[C@H](COP(=O)(O)OP(=O)(O)OP(=O)(O)O)[C@@H](O)[C@H]1O [adenosine triphosphate]
Description: NP40-soluble protein abundance relative to vehicle (solubility fold change) (ratio); higher = more soluble protein in presence of ATP. In outline:
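Each value is a fold change relative to the detergent-processed vehicle, calculated per replicate from vsn-normalised intensities. Jurkat crude lysate received eight concentrations (0.1 to 10 mM) for 10 min at room temperature and 3 min at 37 °C, then was solubilised in 0.8% NP40 with benzonase (60 min, 4 °C). The ultracentrifuged supernatant was TMT-labelled and run by LC-MS/MS in three independent experiments.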

Take MPHOSPH10 (UniProt O00566): the NP40-soluble protein abundance was determined as 0.985 ± 0.04 (concentration: 0.1mM) and 0.978 ± 0.043 (concentration: 0.5mM).

Turning to AKR7A2 (UniProt O43488), the NP40-soluble protein abundance reads like this: (concentration: 0.1mM) 0.976 ± 0.015; (concentration: 0.5mM) 0.9708 ± 0.0046.

DAPK3 (UniProt O43293): the NP40-soluble protein abundance amounted to 1.04 ± 0.06 (concentration: 0.1mM) and 1.1 ± 0.044 (concentration: 0.5mM).

For PSMA7 (UniProt O14818), the NP40-soluble protein abundance (concentration: 0.1mM) was 0.955 ± 0.038 and the NP40-soluble protein abundance (concentration: 0.5mM) came to 0.949 ± 0.042.

For the target PIK3C2A (UniProt O00443), the NP40-soluble protein abundance by setting is: (concentration: 0.1mM) 0.901 ± 0.1; (concentration: 0.5mM) 0.931 ± 0.16.

Regarding UniProt O43303 and related entries, the NP40-soluble protein abundance was found to be 1.02 ± 0.083 (concentration: 0.1mM) and 1.01 ± 0.058 (concentration: 0.5mM).

In the case of UniProt O14593 and related entries, the NP40-soluble protein abundance worked out at 1.02 ± 0.064 (concentration: 0.1mM) and 0.967 ± 0.1 (concentration: 0.5mM).

Regarding UniProt O15371 and related entries, the NP40-soluble protein abundance was determined as 0.999 ± 0.063 (concentration: 0.1mM) and 1 ± 0.052 (concentration: 0.5mM).

Regarding M0QZR4 (UniProt Q92888), the NP40-soluble protein abundance reads like this: (concentration: 0.1mM) 1.02 ± 0.029; (concentration: 0.5mM) 1.03 ± 0.035.

Regarding UniProt O14757, the NP40-soluble protein abundance (concentration: 0.1mM) stood at 1.01 ± 0.11 and the NP40-soluble protein abundance (concentration: 0.5mM) came to 1.01 ± 0.058.

Consider UniProt O00330 and related entries, for which the NP40-soluble protein abundance turned out to be 1.02 ± 0.15 (concentration: 0.1mM) and 1.13 ± 0.19 (concentration: 0.5mM).

With TIMM8A (UniProt O60220), the NP40-soluble protein abundance came to 0.91 ± 0.1 (concentration: 0.1mM) and 0.937 ± 0.082 (concentration: 0.5mM).

As to PSMD3 (UniProt O43242), the NP40-soluble protein abundance is, setting by setting: (concentration: 0.1mM) 0.958 ± 0.031; (concentration: 0.5mM) 0.927 ± 0.021.

Regarding ARPC5 (UniProt O15511), the NP40-soluble protein abundance is 0.86 ± 0.14 (concentration: 0.1mM) and 0.869 ± 0.17 (concentration: 0.5mM).

For CASC3 (UniProt O15234), the NP40-soluble protein abundance (concentration: 0.1mM) amounted to 0.97 ± 0.044 and the NP40-soluble protein abundance (concentration: 0.5mM) worked out at 0.991 ± 0.072.

Consider NPC1 (UniProt O15118), for which the NP40-soluble protein abundance is, setting by setting: (concentration: 0.1mM) 0.997 ± 0.043; (concentration: 0.5mM) 0.952 ± 0.067.

Turning to “O60344 and related entries (UniProt P0DPD6)”, the NP40-soluble protein abundance reads like this: (concentration: 0.1mM) 0.94 ± 0.064; (concentration: 0.5mM) 0.995 ± 0.048.

Regarding CBX4 (UniProt O00257), the NP40-soluble protein abundance (concentration: 0.1mM) was 0.948 ± 0.058 and the NP40-soluble protein abundance (concentration: 0.5mM) came to 0.979 ± 0.1.

Regarding UniProt O14686 and related entries, the NP40-soluble protein abundance turned out to be 0.973 ± 0.02 (concentration: 0.1mM) and 0.988 ± 0.041 (concentration: 0.5mM).

Regarding RFXAP (UniProt O00287), the NP40-soluble protein abundance by setting is: (concentration: 0.1mM) 0.945 ± 0.059; (concentration: 0.5mM) 0.866 ± 0.067.

For SART1 (UniProt O43290), the NP40-soluble protein abundance reads like this: (concentration: 0.1mM) 1.02 ± 0.041; (concentration: 0.5mM) 1.18 ± 0.05.

For the target UniProt O43324 and related entries, the NP40-soluble protein abundance was 0.915 ± 0.14 (concentration: 0.1mM) and 0.869 ± 0.18 (concentration: 0.5mM).

On to UniProt O00139 and related entries, for which the NP40-soluble protein abundance is, setting by setting: (concentration: 0.1mM) 1.02 ± 0.047; (concentration: 0.5mM) 0.961 ± 0.038.

Turning to UniProt O14735 and related entries, the NP40-soluble protein abundance is, setting by setting: (concentration: 0.1mM) 0.986 ± 0.07; (concentration: 0.5mM) 0.944 ± 0.013.

For the target EXTL3 (UniProt O43909), the NP40-soluble protein abundance came to 0.962 ± 0.2 (concentration: 0.1mM) and 1.01 ± 0.024 (concentration: 0.5mM).

OPLAH (UniProt O14841): the NP40-soluble protein abundance (concentration: 0.1mM) turned out to be 1.06 ± 0.027 and the NP40-soluble protein abundance (concentration: 0.5mM) amounted to 1.07 ± 0.052.

FADS1 (UniProt O60427): the NP40-soluble protein abundance (concentration: 0.1mM) is 0.99 ± 0.025 and the NP40-soluble protein abundance (concentration: 0.5mM) came out at 1.04 ± 0.034.

Turning to UniProt O60331 and related entries, the NP40-soluble protein abundance is, setting by setting: (concentration: 0.1mM) 1.06 ± 0.085; (concentration: 0.5mM) 1.01 ± 0.023.

Consider UniProt O15226 and related entries, for which the NP40-soluble protein abundance (concentration: 0.1mM) turned out to be 1.01 ± 0.034 and the NP40-soluble protein abundance (concentration: 0.5mM) was found to be 0.9032 ± 0.0066.

Take “UniProt O43439-5|O43439 and related entries”: the NP40-soluble protein abundance reads like this: (concentration: 0.1mM) 0.978 ± 0.025; (concentration: 0.5mM) 0.978 ± 0.074.

Consider UniProt O43852 and related entries, for which the NP40-soluble protein abundance is, setting by setting: (concentration: 0.1mM) 0.969 ± 0.017; (concentration: 0.5mM) 0.974 ± 0.03.

For the target PHGDH (UniProt O43175), the NP40-soluble protein abundance is, setting by setting: (concentration: 0.1mM) 0.962 ± 0.035; (concentration: 0.5mM) 0.969 ± 0.046.

As to UniProt O43683 and related entries, the NP40-soluble protein abundance is, setting by setting: (concentration: 0.1mM) 1.02 ± 0.052; (concentration: 0.5mM) 1.01 ± 0.036.

Regarding UniProt O00182 and related entries, the NP40-soluble protein abundance was determined as 1.03 ± 0.046 (concentration: 0.1mM) and 1.02 ± 0.051 (concentration: 0.5mM).

Consider UniProt O60353 and related entries, for which the NP40-soluble protein abundance by setting is: (concentration: 0.1mM) 1.03 ± 0.16; (concentration: 0.5mM) 0.962 ± 0.1.

As to TXNL1 (UniProt O43396), the NP40-soluble protein abundance runs as follows: (concentration: 0.1mM) 1.02 ± 0.034; (concentration: 0.5mM) 1.03 ± 0.043.

For UniProt O15530 and related entries, the NP40-soluble protein abundance by setting is: (concentration: 0.1mM) 1.07 ± 0.013; (concentration: 0.5mM) 1.03 ± 0.028.

Turning to GMFG (UniProt O60234), the NP40-soluble protein abundance reads like this: (concentration: 0.1mM) 1.04 ± 0.051; (concentration: 0.5mM) 1 ± 0.08.

In the case of UniProt O43390 and related entries, the NP40-soluble protein abundance is, setting by setting: (concentration: 0.1mM) 1.03 ± 0.046; (concentration: 0.5mM) 1.06 ± 0.049.

For the target UniProt O00487, the NP40-soluble protein abundance reads like this: (concentration: 0.1mM) 1.01 ± 0.064; (concentration: 0.5mM) 0.976 ± 0.039.

Consider UniProt O15265 and related entries, for which the NP40-soluble protein abundance reads like this: (concentration: 0.1mM) 0.9 ± 0.017; (concentration: 0.5mM) 0.898 ± 0.17.

For the target PRPSAP2 (UniProt O60256), the NP40-soluble protein abundance by setting is: (concentration: 0.1mM) 1.02 ± 0.04; (concentration: 0.5mM) 1.05 ± 0.019.

For UniProt O00165 and related entries, the NP40-soluble protein abundance was found to be 1.04 ± 0.022 (concentration: 0.1mM) and 1.07 ± 0.066 (concentration: 0.5mM).

Consider PFAS (UniProt O15067), for which the NP40-soluble protein abundance by setting is: (concentration: 0.1mM) 1.03 ± 0.033; (concentration: 0.5mM) 1 ± 0.029.

Take RAD51C (UniProt O43502): the NP40-soluble protein abundance turned out to be 1.05 ± 0.11 (concentration: 0.1mM) and 1.03 ± 0.083 (concentration: 0.5mM).

For the target UniProt O15446 and related entries, the NP40-soluble protein abundance came out at 0.872 ± 0.032 (concentration: 0.1mM) and 0.902 ± 0.027 (concentration: 0.5mM).

Turning to GNPAT (UniProt O15228), the NP40-soluble protein abundance is, setting by setting: (concentration: 0.1mM) 1.04 ± 0.091; (concentration: 0.5mM) 1.03 ± 0.08.

For UniProt O15085 and related entries, the NP40-soluble protein abundance by setting is: (concentration: 0.1mM) 0.895 ± 0.12; (concentration: 0.5mM) 0.891 ± 0.13.

Consider UniProt O60293 and related entries, for which the NP40-soluble protein abundance by setting is: (concentration: 0.1mM) 1.01 ± 0.031; (concentration: 0.5mM) 1.05 ± 0.036.

For the target IFIT3 (UniProt O14879), the NP40-soluble protein abundance (concentration: 0.1mM) worked out at 0.862 ± 0.1 and the NP40-soluble protein abundance (concentration: 0.5mM) was determined as 0.896 ± 0.12.

Turning to NDUFS4 (UniProt O43181), the NP40-soluble protein abundance by setting is: (concentration: 0.1mM) 0.963 ± 0.066; (concentration: 0.5mM) 0.983 ± 0.069.

Regarding ANKRD28 (UniProt O15084), the NP40-soluble protein abundance is, setting by setting: (concentration: 0.1mM) 0.983 ± 0.041; (concentration: 0.5mM) 1.01 ± 0.034.

KPNA4 (UniProt O00629): the NP40-soluble protein abundance by setting is: (concentration: 0.1mM) 1.03 ± 0.047; (concentration: 0.5mM) 1.07 ± 0.04.

On to UniProt O00221 and related entries, for which the NP40-soluble protein abundance by setting is: (concentration: 0.1mM) 0.917 ± 0.097; (concentration: 0.5mM) 0.995 ± 0.097.

Regarding UBE2L6 (UniProt O14933), the NP40-soluble protein abundance runs as follows: (concentration: 0.1mM) 0.9 ± 0.062; (concentration: 0.5mM) 0.913 ± 0.15.

As for UniProt O60343 and related entries, the NP40-soluble protein abundance (concentration: 0.1mM) came to 1.04 ± 0.038 and the NP40-soluble protein abundance (concentration: 0.5mM) was 1 ± 0.023.

As for UniProt O43150 and related entries, the NP40-soluble protein abundance runs as follows: (concentration: 0.1mM) 1.07 ± 0.032; (concentration: 0.5mM) 1.07 ± 0.083.

Regarding UniProt O15040 and related entries, the NP40-soluble protein abundance reads like this: (concentration: 0.1mM) 0.999 ± 0.064; (concentration: 0.5mM) 0.938 ± 0.059.

UniProt O00255 and related entries: the NP40-soluble protein abundance was 1.05 ± 0.015 (concentration: 0.1mM) and 1.04 ± 0.021 (concentration: 0.5mM).

With SCAMP1 (UniProt O15126), the NP40-soluble protein abundance came out at 0.985 ± 0.023 (concentration: 0.1mM) and 1 ± 0.066 (concentration: 0.5mM).

Values taken from the supplement of paper PMC6411743.
